Among the data in article PMC8257591 are binding values, retold here.

No constants are given. Whether binding was seen depends on the method and setting. Binding seen in cells or lysates may run through a third protein. Binding can be weak; no strength is given. Where a sequence is shown, tags or fusion partners need not be part of it.

This test has as its target T1, Myc-tagged mouse GPx1 (glutathione peroxidase type 1), wild type (mouse) (UniProt P11352).
T1 sequence (chain, selenocysteine at 47 (Sec47)): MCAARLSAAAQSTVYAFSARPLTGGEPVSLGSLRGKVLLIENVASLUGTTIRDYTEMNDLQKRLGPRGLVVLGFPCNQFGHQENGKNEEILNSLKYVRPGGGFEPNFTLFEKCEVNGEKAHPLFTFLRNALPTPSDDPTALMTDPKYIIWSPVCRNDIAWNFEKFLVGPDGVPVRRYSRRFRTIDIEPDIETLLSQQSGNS
As to the kind of experiment: co-IP; HeLa cells cotransfected with Myc-tagged GPx1 and Flag-tagged TRAF2 (wild type or truncated mutants), stimulated with T/C for 2 h; lysate immunoprecipitated with anti-Myc antibody.

Turning to “Flag-tagged TRAF2 truncated mutant lacking the N-terminal RING domain (human) (domain or fragment)”, the binding entry is “binds”.
